Test results as given in PMC8145104.
These are yes or no findings as the source states them, for the method shown.

Target: HopA1 from Pseudomonas syringae pv. syringae strain 61 (HopA1_(Pss61)), in pDEST32 (Pseudomonas syringae pv. syringae strain 61)
Experiment: two-hybrid; pDEST32-hopA1_(Pss61) and pDEST22-RPS6 transformed together into yeast strain PJ69-4A; SD media (-Trp-Leu, -Trp-Leu-His), 30 °C, examined 4 days later

B1: … TO PSEUDOMONAS SYRINGAE6 (RPS6, At5g46470), CDS in pDEST22 (protein, UniProt F4KHH8 1-1127)
chain: MASSSSSSSRNWSYHVFPSFSGEDVRNTFLSHFLKELDRKLIISFKDNEIERSQSLDPELKHGIRNSRIAVVVFSKTYASSSWCLNELLEIVKCKKEFGQLVIPIFYNLDPSHVRKQTGDFGKIFEKTCRNKTVDEKIRWKEALTDVANILGYHIVTWDNEASMIEEIANDILGKMNISPSNDFEDLVGIEDHITKMSSLLHLESEEVRMVGIWGPSGIGKTTIARALFSRLSCQFQSSVFIDKVFISKSMEVYSGANLVDYNMKLHLQRAFLAEIFDKKDIKIHVGAMEKMVKHRKALIVIDDLDDQDVLDALADQTQWFGSGSRIIVVTENKHFLRANRIDHIYKVCLPSNALALEMFCRSAFKKNSPPDDFLELSSEVALRAGNLPLGLNVLGSNLRGINKGYWIDMLPRLQGLDGKIGKTLRVSYDGLNNRKDEAIFRHIACIFNGEKVSDIKLLLANSNLDVNIGLKNLVDRSLICERFNTLEMHSLLQELGKEIVRTQSNQPGEREFLVDLKDICDVLEHNTGTKKVLGITLDIDETDELHIHESSFKGMHNLLFLKIYTKKLDQKKKVRWHLPERFDYLPSRLRLLRFDRYPSKCLPSNFHPENLVKLQMQQSKLEKLWDGVHSLAGLRNMDLRGSRNLKEIPDLSMATNLETLKLSSCSSLVELPSSIQYLNKLNDLDMSYCDHLETIPSGVNLKSLDRLNLSGCSRLKSFLDIPTNISWLDIGQTADIPSNLRLQNLDELILCERVQLRTPLMTMLSPTLTRLTFSNNPSFVEVPSSIQNLYQLEHLEIMNCRNLVTLPTGINLDSLISLDLSHCSQLKTFPDISTNISDLNLSYTAIEEVPLSIEKLSLLCYLDMNGCSNLLCVSPNISKLKHLERADFSDCVELTEASWNGSSSEMVKLLPADNFSTVKLNFINCFKLDLTALIQNQTFFMQLILTGEEVPSYFTHRTSGDSISLPHISVCQSFFSFRGCTVIDVDSFSTISVSFDIEVCCRFIDRFGNHFDSTDFPGYFITTKLGGHLVVFDCYFPFNEEFTTFLDGQFNYDHVDIQFRLTNDNSQLKLKGCGILLSEDVPSLDNRPCSPNILPGVCEDSALERRSFRTKMRMMRMRLLKKLLNR
binding: no binding
